The target in this assay is T1, μ-opioid receptor (MOR) (Homo sapiens, UniProt P35372).
T1 construct: expressed in transfected cells; host or cells: CHO-hOR cells (CHO cells expressing the human opioid receptor)
The assay can be described thus: Opioid receptor radio-ligand binding assay (CHO-hOR cells). As for the experimental part: Next, the synthesised peptides were subjected to biological activity testing, to know whether they still bind to the opioid receptor. If so, it is tested to which opioid receptor subtype they bind. It is also investigated whether the opioid peptides behave as agonist or antagonist. The following assays are performed: radio-ligand binding assay, ^35S GTP binding assay, and tissue experiments, including guinea pig ileum (GPI) and mouse vas deferens (MVD) tests.

Protein sequences, listed by entry. Tags and fused reporters are not part of them.
UniProt P35372, whole entry: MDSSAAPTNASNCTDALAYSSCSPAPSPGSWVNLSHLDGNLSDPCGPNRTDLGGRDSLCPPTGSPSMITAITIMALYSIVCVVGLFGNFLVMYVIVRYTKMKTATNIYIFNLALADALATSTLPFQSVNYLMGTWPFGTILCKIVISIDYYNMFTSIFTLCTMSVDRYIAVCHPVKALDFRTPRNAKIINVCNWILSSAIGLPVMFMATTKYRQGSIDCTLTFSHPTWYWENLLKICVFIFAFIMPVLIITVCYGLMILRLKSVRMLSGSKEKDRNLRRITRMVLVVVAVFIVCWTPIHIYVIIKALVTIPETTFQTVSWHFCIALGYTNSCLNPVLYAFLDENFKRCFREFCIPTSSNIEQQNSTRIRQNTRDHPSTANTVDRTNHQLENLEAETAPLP

By Ki is commonly meant the equilibrium dissociation constant of an inhibitor or competing ligand from its target.

As to `N=C(N)NCCC[C@@H](NC(=O)[C@@H](N)Cc1ccc(O)cc1)C(=O)N[C@@H](Cc1ccccc1)C(=O)N[C@@H](Cc1ccccc1)C(N)=O` [WTP, H—Y-r-F—F—NH2], the inhibition constant Ki was 8.04 ± 0.44 nM.

The values are drawn from patent publication US11397186B2, “Methods for covalently binding a cell surface protein and a ligand” (UNIVERSITEIT GENT, priority 2016, dated 2022).
